Data on one compound can be found in PubChem BioAssay AID1895 (NMMLSC, 2009).

The term EC50 denotes the concentration giving half of the maximal effect.

The target in the test is MEK5 PB1 domain binding to MEKK2 (MAP3K2) mutant PB1, human. Nature of the test: inhibitors of MEK5 binding to mutant MEKK2, dose response, biochemical, bead multiplex flow cytometry (AID 1895). The settings on record: Bead-based multiplex flow cytometry. Background: A flow cytometer gives signals particle by particle.

The source made the active and inactive calls. How the calls were made is not given here.

In the case of `Cc1c2cc(O)c(=O)cc-2oc2cc(O)c(O)cc12`, the EC50 was inactive: > 30 µM.
